According to PubChem BioAssay AID192 (DTP/NCI, 2004):
The list shows only some results of the screen, not a fair sample: it is rich in T/C values a quarter to a half above the control, in often repeated tests (any T/C) and in doses without a T/C. Other doses and runs of a compound stand elsewhere. T/C gives the treated animals as a percentage of the vehicle group. Some entries give survivors of the animals treated and no T/C: the source holds a T/C of zero for them, seemingly a mark for toxic or unscored doses. Some survivor counts are full or nearly so, which does not show that the dose was tolerated: the source hardly ever lists a survival T/C far under the control, and the zero likely stands for such cases as well. Counts of survivors are from the toxicity check (mostly the fifth day) where no day follows; animals may have died later. Schedules are NCI's codes, taken here to give the interval after Q, in days (D) or hours (H), and the number of doses after X. Some molecules as drawn cover several salts, stereoisomers or complexes of the source; a dose is that of the sample tested. Some doses were run more than once; the results are listed from low to high. Brackets with × say how often a value occurs here. For survival time, the PubChem record calls one and a half times the control and up active, and a quarter to a half above the control has no call in these data; cut-offs in other NCI protocols can differ. Some T/C values carry the count of animals alive at the toxicity check (mostly the fifth day); where none is given, no animal had died by that day.

System: BDF1 mice, B16 melanoma ip, median survival T/C
Assay: NCI In Vivo Anticancer Drug Screen. Data for tumor model B16 Melanoma (intraperitoneal) in B6D2F1 (BDF1) mice
Details: T/C endpoint: median survival time, higher T/C = longer survival
How it was run: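 Each result divides a survival or tumor-size measurement in the compound-treated group by the same measurement in the vehicle group.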

[1] = dose: 150.0 mg/kg/injection, schedule: Q01DX001 (ip), vehicle: Klucel (hydroxypropylcellulose) (HPC)

Question: Which results are given for `O=C1c2ccccc2C(=O)c2c(NCCNCCO)ccc(NCCNCCO)c21`?
Answer: survivor count (dose: 32.0 mg/kg/injection, schedule: Q03HX008 (ip), vehicle: acid diluted with saline): 4 of 10; survivor count (dose: 32.0 mg/kg/injection, schedule: Q03HX008 (ip), vehicle: saline): 4 of 10; survivor count (dose: 32.0 mg/kg/injection, schedule: Q03HX016 (ip), vehicle: acid diluted with saline): 3 of 10; survivor count (dose: 32.0 mg/kg/injection, schedule: Q03HX024 (ip), vehicle: acid diluted with saline): 4 of 10; T/C (dose: 32.0 mg/kg/injection, schedule: Q08DX002 (ip), vehicle: saline): 146 % of control; survivor count (dose: 62.5 mg/kg/injection, schedule: Q01DX009 (ip), vehicle: Klucel (hydroxypropylcellulose) (HPC)): 10 of 10; survivor count (dose: 64.0 mg/kg/injection, schedule: Q01DX005 (ip), vehicle: acid diluted with saline): 10 of 10; survivor count (dose: 64.0 mg/kg/injection, schedule: Q01DX005 (ip), vehicle: saline): 10 of 10; survivor count (dose: 64.0 mg/kg/injection, schedule: Q01DX005 (iv), vehicle: saline): 2 of 10; survivor count (dose: 64.0 mg/kg/injection, schedule: Q01DX009 (ip), vehicle: Klucel (hydroxypropylcellulose) (HPC)): 10 of 10; survivor count (dose: 64.0 mg/kg/injection, schedule: Q01DX009 (ip), vehicle: acid diluted with saline): 8 of 10; survivor count (dose: 64.0 mg/kg/injection, schedule: Q01DX009 (ip), vehicle: saline with Tween-80): 9 of 10; survivor count (dose: 64.0 mg/kg/injection, schedule: Q01DX009 (ip), vehicle: saline): 6 of 10, 7 of 10, 9 of 10, 10 of 10 (2×); survivor count (dose: 64.0 mg/kg/injection, schedule: Q01DX009 (ip), vehicle: water): 5 of 10 and 10 of 10; survivor count (dose: 64.0 mg/kg/injection, schedule: Q01DX009 (sc), vehicle: acid diluted with saline): 10 of 10; survivor count (dose: 64.0 mg/kg/injection, schedule: Q01DX009 (sc), vehicle: saline): 10 of 10; survivor count (dose: 64.0 mg/kg/injection, schedule: Q02DX009 (ip), vehicle: saline with Tween-80): 8 of 10; survivor count (dose: 64.0 mg/kg/injection, schedule: Q02DX009 (ip), vehicle: saline): 7 of 10; survivor count (dose: 64.0 mg/kg/injection, schedule: Q03HX008 (ip), vehicle: acid diluted with saline): 0 of 10; survivor count (dose: 64.0 mg/kg/injection, schedule: Q04DX003 (ip), vehicle: acid diluted with saline): 10 of 10; T/C (dose: 75.0 mg/kg/injection, schedule: Q01DX001 (ip), vehicle: Klucel (hydroxypropylcellulose) (HPC)): 104 [8 of 10 alive], 114 [7 of 10 alive], 141, 173 % of control; survivor count (dose: 100.0 mg/kg/injection, schedule: Q01DX001 (ip), vehicle: water): 8 of 10; survivor count (dose: 125.0 mg/kg/injection, schedule: Q01DX009 (ip), vehicle: Klucel (hydroxypropylcellulose) (HPC)): 10 of 10; survivor count (dose: 128.0 mg/kg/injection, schedule: Q01DX001 (ip), vehicle: acid diluted with saline): 5 of 10; survivor count (dose: 128.0 mg/kg/injection, schedule: Q01DX001 (ip), vehicle: saline): 8 of 10; T/C (dose: 128.0 mg/kg/injection, schedule: Q01DX001 (sc), vehicle: acid diluted with saline): 127 % of control; survivor count (dose: 128.0 mg/kg/injection, schedule: Q01DX005 (ip), vehicle: acid diluted with saline): 0 of 10; survivor count (dose: 128.0 mg/kg/injection, schedule: Q01DX005 (iv), vehicle: saline): 0 of 10; survivor count (dose: 128.0 mg/kg/injection, schedule: Q01DX009 (ip), vehicle: Klucel (hydroxypropylcellulose) (HPC)): 6 of 10; survivor count (dose: 128.0 mg/kg/injection, schedule: Q01DX009 (ip), vehicle: water): 9 of 10; survivor count (dose: 128.0 mg/kg/injection, schedule: Q02DX009 (ip), vehicle: saline with Tween-80): 3 of 10; survivor count (dose: 128.0 mg/kg/injection, schedule: Q02DX009 (ip), vehicle: saline): 10 of 10; survivor count (dose: 128.0 mg/kg/injection, schedule: Q04DX003 (ip), vehicle: acid diluted with saline): 2 of 10; survivor count (dose: 128.0 mg/kg/injection, schedule: Q04DX003 (ip), vehicle: saline): 10 of 10; survivor count (dose: 128.0 mg/kg/injection, schedule: Q08DX002 (ip), vehicle: acid diluted with saline): 5 of 10; T/C [1]: 144 and 167 % of control [9 of 10 alive]; survivor count [1]: 2 of 10 and 8 of 10; survivor count (dose: 200.0 mg/kg/injection, schedule: Q01DX001 (ip), vehicle: water): 3 of 10; survivor count (dose: 256.0 mg/kg/injection, schedule: Q01DX001 (ip), vehicle: acid diluted with saline): 1 of 10; T/C (dose: 256.0 mg/kg/injection, schedule: Q01DX001 (sc), vehicle: acid diluted with saline): 136 % of control [9 of 10 alive]; survivor count (dose: 256.0 mg/kg/injection, schedule: Q01DX009 (oral), vehicle: acid diluted with saline): 10 of 10; survivor count (dose: 256.0 mg/kg/injection, schedule: Q01DX009 (oral), vehicle: saline): 10 of 10; survivor count (dose: 256.0 mg/kg/injection, schedule: Q04DX003 (ip), vehicle: acid diluted with saline): 0 of 10; survivor count (dose: 256.0 mg/kg/injection, schedule: Q08DX002 (ip), vehicle: acid diluted with saline): 0 of 10; survivor count (dose: 300.0 mg/kg/injection, schedule: Q01DX001 (ip), vehicle: Klucel (hydroxypropylcellulose) (HPC)): 0 of 10, 7 of 10, 10 of 10; survivor count (dose: 400.0 mg/kg/injection, schedule: Q01DX001 (ip), vehicle: water): 0 of 10; survivor count (dose: 512.0 mg/kg/injection, schedule: Q01DX001 (ip), vehicle: acid diluted with saline): 0 of 10; survivor count (dose: 512.0 mg/kg/injection, schedule: Q01DX001 (oral), vehicle: acid diluted with saline): 6 of 10; survivor count (dose: 512.0 mg/kg/injection, schedule: Q01DX001 (sc), vehicle: acid diluted with saline): 5 of 10; survivor count (dose: 600.0 mg/kg/injection, schedule: Q01DX001 (ip), vehicle: Klucel (hydroxypropylcellulose) (HPC)): 0 of 10 and 10 of 10; survivor count (dose: 1024.0 mg/kg/injection, schedule: Q01DX001 (oral), vehicle: acid diluted with saline): 8 of 10; survivor count (dose: 1200.0 mg/kg/injection, schedule: Q01DX001 (ip), vehicle: Klucel (hydroxypropylcellulose) (HPC)): 0 of 10 and 10 of 10
